# Article doi:10.1101/723718
# Chains of the proteins cited; added tags and fusions are not shown. Residues count along the entry.
# UniProt Q13616: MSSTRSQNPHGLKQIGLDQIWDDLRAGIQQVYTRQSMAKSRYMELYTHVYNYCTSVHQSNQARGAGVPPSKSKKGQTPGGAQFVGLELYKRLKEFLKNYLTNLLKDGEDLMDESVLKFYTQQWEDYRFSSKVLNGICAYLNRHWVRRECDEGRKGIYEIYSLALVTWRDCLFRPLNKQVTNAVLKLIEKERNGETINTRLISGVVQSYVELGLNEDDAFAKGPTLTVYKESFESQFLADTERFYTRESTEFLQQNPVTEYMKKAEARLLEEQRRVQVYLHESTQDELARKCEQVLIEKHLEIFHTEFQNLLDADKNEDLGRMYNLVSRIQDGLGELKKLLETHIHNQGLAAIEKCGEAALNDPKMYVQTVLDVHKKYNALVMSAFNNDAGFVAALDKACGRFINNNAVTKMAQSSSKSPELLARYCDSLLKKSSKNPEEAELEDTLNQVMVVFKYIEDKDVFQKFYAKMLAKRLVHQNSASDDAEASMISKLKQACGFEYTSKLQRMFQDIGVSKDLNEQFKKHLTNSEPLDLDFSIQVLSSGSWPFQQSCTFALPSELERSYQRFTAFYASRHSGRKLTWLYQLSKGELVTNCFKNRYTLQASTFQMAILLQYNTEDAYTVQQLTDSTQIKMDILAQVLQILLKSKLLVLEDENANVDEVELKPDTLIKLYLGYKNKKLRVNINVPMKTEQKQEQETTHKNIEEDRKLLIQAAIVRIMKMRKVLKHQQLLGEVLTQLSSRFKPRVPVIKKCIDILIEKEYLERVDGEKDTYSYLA
# UniProt Q13158: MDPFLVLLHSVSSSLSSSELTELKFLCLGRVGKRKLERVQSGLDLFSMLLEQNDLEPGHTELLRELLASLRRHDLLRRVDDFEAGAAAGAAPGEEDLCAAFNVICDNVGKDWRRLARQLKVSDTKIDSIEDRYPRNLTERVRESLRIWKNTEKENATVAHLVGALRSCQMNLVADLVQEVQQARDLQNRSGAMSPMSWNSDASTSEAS
# UniProt Q14790: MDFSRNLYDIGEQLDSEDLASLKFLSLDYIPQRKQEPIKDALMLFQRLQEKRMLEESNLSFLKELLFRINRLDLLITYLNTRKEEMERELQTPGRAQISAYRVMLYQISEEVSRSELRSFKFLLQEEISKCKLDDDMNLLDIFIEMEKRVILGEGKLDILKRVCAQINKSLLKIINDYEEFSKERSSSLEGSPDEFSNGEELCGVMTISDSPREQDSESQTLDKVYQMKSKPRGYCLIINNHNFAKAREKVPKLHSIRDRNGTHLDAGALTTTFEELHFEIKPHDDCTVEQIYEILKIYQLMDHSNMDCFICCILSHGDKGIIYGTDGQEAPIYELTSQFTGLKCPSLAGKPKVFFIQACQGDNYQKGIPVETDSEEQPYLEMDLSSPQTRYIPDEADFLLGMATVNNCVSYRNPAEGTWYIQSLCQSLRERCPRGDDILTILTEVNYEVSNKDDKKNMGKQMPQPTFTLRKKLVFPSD
# UniProt O14763, residues 56-440: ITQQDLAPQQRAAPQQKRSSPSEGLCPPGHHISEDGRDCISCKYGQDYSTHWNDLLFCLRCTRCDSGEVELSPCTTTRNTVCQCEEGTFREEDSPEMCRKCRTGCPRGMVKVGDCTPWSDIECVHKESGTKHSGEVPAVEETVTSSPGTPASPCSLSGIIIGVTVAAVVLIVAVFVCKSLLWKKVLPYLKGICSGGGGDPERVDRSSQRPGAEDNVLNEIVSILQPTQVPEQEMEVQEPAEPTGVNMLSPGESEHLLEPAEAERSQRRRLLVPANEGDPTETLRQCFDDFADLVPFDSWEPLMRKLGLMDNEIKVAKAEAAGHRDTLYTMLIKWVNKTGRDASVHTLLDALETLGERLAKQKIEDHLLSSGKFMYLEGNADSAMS
# UniProt Q13546: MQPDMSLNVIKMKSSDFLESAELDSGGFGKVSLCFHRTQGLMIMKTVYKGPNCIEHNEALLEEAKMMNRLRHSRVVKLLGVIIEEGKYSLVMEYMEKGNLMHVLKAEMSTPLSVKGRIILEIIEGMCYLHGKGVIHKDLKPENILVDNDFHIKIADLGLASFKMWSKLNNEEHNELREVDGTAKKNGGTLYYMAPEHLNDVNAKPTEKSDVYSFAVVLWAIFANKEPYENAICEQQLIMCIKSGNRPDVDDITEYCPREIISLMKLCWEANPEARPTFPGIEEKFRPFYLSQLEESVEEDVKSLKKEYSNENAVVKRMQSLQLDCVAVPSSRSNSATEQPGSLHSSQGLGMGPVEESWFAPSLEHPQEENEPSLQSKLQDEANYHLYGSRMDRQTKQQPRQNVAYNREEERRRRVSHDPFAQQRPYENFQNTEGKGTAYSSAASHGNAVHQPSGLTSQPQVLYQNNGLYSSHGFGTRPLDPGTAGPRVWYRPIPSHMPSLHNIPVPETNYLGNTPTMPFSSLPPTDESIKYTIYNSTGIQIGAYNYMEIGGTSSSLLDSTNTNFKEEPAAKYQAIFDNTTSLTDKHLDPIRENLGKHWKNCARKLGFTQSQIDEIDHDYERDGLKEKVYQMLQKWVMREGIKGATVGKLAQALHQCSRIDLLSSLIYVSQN
# UniProt P63208: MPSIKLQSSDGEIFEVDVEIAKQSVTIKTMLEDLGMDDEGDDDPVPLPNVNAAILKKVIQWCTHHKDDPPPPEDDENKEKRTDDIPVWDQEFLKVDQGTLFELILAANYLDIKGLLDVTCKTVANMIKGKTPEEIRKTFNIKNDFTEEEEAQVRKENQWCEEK
# No constants are given. Whether binding was seen depends on the method and setting. Binding seen in cells or lysates may run through a third protein. Some results given as binding are weak or reduced against the parent protein; the word gives no strength.
# Target: Myc-tagged Cullin-1 (UniProt Q13616)
# Assay: co-IP
row,binding,Substance
1,no binding,"FADD (overexpressed, Figure 4C) (from UniProt Q13158 1-208)"
2,no binding,Flag-tagged procaspase-8 (from UniProt Q14790 1-479)
3,no binding,endogenous FADD (from UniProt Q13158 1-208)
4,no binding,endogenous caspase-8 (from UniProt Q14790 1-479)

# Target: TRAIL-R2 (DR5), endogenous on HCT116 cells (human (endogenous in HCT116)) (UniProt O14763)
# Assay: co-IP
row,binding,Substance
1,binds,endogenous FADD (from UniProt Q13158 1-208)
2,binds,endogenous RIPK1 (from UniProt Q13546 1-671)
3,binds,endogenous Skp1 (from UniProt P63208 1-163)
